Assay results reported in US5962636A, “Peptides capable of modulating inflammatory heart disease” (priority 1998, dated 1999).
Part of at least one peptide drawing is inferred or uncertain, most often the ends. No end group written: not given here.

Tested on: Balb/c mice
Assay: Induction of inflammatory cardiomyopathy by immunization with peptide in Freund's complete adjuvant; heart histology
Settings: mouse, in vivo

Ac-KIEAAAAESLATRFIA [C. psitt. CRP] was tested, and the Percent was 50% and the Prevalence was 5/10.
